In patent US7282339B2, “Competitive immunoassay” (Invitrogen Corporation, priority 2003, dated 2007):
At least one compound was matched to its structure with a doubt left.

Tested on: mouse monoclonal anti-Digoxigenin antibody complexed with QSY 9 labeled Fab fragment of goat-anti-mouse kappa chain
Assay: Detection of digoxigenin with ligand-binding antibody-labeling protein-ligand analog ternary complex (Example 9)
Conditions: excess (1 μM) unlabeled Digoxigenin

C[C@]12CC[C@H](O)C[C@H]1CC[C@@H]1[C@@H]2C[C@@H](O)[C@]2(C)[C@@H](C3=CC(=O)OC3)CC[C@]12O [unlabeled Digoxigenin, Digoxigenin]
relief of fluorescence quenching by target ligand: partially relieved
